Here are results for 1 compound from ChEMBL document CHEMBL6078728 (Bioorg Med Chem, 2025).

Structures are written as SMILES.

Data set [1] is described as follows: in vitro. The settings on record: PAMPA, pH 6.5. (In PAMPA a lipid-coated filter parts donor from acceptor wells.)
Data set [2] is described as follows: physchem. The settings on record: buffer, pH 1.2.
The nature of data set [3]: physchem. Conditions: buffer, pH 6.8.

Turning to `Cc1c(N[C@@H]2CCCC[C@H]2O)nnc(-c2ccc(C(F)(F)F)cc2O)c1C`, the Papp (in general, the rate of passage across a membrane or cell layer, normalised by area and donor concentration) at 2 h in data set [1] was 14.5 ×10⁻⁶ cm/s. Besides, the solubility at 20 h in data set [2] and in data set [3] was ≥ 100 µM in each case.
